In the supplement of paper PMC10849652:
Some of the results follow.

Protein sequences, listed by entry. Tags and fused reporters are not part of them. Lines headed by an entry give the natural chain unless they say otherwise; changes in a name come on top.
UniProt P25490, whole entry, looked up: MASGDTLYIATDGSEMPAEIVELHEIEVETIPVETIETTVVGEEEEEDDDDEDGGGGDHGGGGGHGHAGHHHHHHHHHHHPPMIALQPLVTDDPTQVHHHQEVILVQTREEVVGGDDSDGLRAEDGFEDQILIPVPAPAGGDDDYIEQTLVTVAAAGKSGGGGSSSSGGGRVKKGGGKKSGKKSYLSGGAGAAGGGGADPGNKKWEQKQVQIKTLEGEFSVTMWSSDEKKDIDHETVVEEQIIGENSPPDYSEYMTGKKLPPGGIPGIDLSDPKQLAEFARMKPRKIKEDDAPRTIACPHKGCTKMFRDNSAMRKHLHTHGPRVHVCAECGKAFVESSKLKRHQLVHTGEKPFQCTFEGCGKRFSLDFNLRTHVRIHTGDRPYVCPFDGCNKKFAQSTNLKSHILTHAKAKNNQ
UniProt P49750: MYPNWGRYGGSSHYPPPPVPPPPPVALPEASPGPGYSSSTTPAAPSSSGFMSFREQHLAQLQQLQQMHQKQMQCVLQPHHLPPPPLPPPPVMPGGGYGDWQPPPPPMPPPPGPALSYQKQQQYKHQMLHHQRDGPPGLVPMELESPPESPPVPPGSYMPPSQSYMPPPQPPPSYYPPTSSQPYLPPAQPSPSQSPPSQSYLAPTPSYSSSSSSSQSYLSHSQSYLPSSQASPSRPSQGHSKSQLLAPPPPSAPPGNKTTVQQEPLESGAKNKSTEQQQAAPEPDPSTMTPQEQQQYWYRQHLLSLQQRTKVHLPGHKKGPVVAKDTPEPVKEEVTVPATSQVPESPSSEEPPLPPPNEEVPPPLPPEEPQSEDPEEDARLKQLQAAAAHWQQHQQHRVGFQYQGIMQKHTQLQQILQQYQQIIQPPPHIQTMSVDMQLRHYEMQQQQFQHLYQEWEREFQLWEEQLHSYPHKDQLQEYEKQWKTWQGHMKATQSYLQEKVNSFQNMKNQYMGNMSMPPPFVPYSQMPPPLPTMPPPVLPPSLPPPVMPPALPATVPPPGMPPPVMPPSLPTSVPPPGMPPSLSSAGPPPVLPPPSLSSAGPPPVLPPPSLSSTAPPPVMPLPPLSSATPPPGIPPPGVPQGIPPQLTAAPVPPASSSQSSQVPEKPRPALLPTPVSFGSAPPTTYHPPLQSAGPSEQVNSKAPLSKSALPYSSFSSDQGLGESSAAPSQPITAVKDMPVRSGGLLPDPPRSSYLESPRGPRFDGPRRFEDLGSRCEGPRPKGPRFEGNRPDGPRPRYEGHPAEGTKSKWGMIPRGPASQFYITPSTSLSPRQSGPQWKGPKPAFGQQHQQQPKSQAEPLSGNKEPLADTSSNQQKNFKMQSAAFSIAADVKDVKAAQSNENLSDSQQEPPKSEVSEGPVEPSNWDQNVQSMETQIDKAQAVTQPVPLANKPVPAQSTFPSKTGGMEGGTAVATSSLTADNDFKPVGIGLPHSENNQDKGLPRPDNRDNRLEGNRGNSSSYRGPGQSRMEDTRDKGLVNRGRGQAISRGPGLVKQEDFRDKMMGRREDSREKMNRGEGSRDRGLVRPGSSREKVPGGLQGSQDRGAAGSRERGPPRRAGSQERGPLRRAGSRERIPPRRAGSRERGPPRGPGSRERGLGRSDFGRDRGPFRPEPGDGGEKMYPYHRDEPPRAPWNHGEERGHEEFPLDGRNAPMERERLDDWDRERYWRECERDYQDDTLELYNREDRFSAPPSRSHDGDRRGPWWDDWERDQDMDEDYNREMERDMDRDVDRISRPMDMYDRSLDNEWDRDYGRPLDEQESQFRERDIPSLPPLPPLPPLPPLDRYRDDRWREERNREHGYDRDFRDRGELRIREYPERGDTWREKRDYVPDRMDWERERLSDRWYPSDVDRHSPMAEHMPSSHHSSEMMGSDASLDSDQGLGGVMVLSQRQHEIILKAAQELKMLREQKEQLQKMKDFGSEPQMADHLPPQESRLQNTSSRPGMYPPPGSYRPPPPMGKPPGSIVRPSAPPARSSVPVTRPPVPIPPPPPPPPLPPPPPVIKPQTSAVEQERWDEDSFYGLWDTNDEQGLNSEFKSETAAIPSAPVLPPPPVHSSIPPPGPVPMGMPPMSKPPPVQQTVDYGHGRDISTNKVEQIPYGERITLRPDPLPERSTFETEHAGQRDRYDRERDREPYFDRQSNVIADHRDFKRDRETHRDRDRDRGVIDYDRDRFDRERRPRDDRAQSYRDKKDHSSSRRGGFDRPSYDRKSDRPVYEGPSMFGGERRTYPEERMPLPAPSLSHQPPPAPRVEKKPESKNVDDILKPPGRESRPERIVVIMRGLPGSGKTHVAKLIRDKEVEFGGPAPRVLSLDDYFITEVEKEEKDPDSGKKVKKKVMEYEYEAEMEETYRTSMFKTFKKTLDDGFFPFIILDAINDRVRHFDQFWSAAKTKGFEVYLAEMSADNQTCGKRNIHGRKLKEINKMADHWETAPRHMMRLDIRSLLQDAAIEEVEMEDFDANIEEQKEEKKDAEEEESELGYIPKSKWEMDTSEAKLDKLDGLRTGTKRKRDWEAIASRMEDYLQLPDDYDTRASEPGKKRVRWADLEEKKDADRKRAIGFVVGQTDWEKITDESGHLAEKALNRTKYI
UniProt Q9HCC9: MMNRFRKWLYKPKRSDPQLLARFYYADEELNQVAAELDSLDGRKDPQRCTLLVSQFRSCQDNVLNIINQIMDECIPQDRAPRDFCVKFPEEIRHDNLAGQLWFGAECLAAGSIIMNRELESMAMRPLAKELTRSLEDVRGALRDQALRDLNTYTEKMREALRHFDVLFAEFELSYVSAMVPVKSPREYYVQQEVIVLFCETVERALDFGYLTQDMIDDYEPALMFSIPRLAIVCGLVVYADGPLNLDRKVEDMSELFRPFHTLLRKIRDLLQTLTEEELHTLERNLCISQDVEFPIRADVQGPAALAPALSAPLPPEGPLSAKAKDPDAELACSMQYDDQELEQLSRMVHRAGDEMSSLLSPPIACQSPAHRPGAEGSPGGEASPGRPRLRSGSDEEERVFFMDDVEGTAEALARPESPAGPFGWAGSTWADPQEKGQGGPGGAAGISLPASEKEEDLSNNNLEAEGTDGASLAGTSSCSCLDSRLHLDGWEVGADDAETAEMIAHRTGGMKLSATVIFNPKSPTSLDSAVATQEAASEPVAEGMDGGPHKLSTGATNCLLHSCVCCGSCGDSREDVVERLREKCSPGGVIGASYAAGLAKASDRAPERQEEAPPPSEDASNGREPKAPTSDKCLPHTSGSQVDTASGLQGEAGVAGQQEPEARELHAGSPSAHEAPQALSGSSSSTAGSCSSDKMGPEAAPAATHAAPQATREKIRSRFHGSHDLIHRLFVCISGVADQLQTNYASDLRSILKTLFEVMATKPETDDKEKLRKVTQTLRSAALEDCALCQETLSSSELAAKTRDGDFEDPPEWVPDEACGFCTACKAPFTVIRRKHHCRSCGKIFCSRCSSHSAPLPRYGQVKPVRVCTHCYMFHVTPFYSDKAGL
UniProt Q9H0D6: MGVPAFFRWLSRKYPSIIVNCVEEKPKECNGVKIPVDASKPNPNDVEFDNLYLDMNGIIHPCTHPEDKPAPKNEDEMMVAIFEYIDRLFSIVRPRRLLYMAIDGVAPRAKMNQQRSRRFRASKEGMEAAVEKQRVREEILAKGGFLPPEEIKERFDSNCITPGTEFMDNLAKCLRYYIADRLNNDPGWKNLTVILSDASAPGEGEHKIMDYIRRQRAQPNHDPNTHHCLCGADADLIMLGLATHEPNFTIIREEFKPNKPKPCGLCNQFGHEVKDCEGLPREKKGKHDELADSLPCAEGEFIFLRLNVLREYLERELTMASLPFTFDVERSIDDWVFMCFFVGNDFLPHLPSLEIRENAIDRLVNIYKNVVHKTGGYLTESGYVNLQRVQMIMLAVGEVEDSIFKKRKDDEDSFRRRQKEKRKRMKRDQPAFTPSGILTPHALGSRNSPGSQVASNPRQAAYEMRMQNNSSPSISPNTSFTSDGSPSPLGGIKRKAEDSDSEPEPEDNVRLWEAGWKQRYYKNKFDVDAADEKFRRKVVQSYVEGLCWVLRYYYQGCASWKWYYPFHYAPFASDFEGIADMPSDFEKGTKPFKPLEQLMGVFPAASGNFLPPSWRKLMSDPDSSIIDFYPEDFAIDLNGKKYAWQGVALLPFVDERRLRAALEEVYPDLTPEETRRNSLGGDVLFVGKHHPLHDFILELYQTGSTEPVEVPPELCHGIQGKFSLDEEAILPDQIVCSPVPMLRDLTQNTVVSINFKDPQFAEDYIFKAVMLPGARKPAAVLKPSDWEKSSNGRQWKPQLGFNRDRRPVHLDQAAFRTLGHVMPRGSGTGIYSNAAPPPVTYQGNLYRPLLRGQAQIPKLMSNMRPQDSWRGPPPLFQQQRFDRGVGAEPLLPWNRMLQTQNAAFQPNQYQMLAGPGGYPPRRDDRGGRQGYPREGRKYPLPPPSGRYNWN
UniProt Q8IWT0: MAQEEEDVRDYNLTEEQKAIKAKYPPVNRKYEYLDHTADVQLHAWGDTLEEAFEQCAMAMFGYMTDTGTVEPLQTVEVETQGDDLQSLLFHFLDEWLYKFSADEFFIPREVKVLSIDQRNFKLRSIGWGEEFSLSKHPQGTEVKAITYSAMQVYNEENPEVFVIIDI
UniProt O43592: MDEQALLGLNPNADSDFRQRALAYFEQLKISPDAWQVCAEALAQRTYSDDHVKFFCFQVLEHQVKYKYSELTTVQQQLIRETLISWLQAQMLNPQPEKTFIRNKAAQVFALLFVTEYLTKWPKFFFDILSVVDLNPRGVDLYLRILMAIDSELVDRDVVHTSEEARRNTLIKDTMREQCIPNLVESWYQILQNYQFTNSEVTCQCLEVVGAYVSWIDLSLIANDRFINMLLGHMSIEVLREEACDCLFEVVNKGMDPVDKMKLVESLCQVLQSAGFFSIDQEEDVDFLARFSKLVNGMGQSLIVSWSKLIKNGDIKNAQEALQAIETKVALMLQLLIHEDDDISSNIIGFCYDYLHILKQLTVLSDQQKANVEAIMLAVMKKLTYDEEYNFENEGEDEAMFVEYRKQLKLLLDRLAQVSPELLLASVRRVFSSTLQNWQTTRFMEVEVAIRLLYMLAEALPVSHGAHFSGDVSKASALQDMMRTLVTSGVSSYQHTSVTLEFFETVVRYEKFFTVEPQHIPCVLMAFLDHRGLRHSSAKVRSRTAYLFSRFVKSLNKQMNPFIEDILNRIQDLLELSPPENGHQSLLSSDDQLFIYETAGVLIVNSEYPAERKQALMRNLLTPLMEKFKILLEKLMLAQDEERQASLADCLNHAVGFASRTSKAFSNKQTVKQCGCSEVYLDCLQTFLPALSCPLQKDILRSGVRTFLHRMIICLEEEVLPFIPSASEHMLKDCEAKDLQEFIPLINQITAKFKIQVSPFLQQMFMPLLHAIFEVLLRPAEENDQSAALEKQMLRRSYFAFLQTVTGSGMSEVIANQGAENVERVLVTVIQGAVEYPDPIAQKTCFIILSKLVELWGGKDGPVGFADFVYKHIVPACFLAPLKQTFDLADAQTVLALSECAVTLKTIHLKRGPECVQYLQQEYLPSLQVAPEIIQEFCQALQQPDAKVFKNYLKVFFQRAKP
UniProt P16989, whole entry, looked up: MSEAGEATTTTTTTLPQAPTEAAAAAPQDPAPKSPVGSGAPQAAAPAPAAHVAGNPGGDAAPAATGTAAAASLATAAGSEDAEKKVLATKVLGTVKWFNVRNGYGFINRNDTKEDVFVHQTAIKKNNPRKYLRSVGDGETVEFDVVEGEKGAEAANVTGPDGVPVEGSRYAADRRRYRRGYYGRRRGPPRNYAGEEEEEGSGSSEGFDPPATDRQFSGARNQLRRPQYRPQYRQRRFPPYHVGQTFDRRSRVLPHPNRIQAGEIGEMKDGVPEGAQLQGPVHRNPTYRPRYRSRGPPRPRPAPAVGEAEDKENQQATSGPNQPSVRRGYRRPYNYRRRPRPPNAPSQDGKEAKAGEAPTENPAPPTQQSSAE
UniProt O43167: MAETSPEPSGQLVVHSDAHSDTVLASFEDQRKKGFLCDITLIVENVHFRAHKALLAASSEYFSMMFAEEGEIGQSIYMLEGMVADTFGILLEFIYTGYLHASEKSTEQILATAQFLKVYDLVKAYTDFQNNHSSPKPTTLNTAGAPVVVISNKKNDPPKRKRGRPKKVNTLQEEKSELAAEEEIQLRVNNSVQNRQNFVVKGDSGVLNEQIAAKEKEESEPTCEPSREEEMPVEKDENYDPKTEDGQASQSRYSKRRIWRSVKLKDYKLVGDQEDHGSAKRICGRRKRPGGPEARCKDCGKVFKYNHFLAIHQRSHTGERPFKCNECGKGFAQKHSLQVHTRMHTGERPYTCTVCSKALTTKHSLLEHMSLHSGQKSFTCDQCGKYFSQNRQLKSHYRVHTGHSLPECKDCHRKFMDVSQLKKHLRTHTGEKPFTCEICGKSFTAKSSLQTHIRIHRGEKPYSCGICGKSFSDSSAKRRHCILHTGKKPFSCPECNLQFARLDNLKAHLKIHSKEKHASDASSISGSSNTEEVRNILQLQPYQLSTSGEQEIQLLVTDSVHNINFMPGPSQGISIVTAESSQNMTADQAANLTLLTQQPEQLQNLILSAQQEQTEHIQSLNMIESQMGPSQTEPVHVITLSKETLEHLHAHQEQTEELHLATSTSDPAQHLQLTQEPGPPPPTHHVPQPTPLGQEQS

Experiments:
Assay in all cases: log2 fold change, soluble protein after heating vs DMSO (PISA); higher = thermal stabilisation; K562 lysate, 10 uM; active = over 0.2 and 3.5 SD of the protein, either way, in both replicates (recomputed)
lapatinib = compound: CS(=O)(=O)CCNCc1ccc(-c2ccc3ncnc(Nc4ccc(OCc5cccc(F)c5)c(Cl)c4)c3c2)o1 [lapatinib]
Summary of the method: (§1)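 K562 pellets were dounce-homogenised in PBS pH 7.4 with 1 mM MgCl2, and the crude extract at 1 mg/mL protein was treated with 10 μM compound for 30 min. Aliquots were heated for 3 min across 48°C-58°C, pooled, and brought to 0.5% NP-40 at 4°C; soluble protein was the supernatant after 21,000xg for 90 min. Soluble protein was quantified by TMTpro 16plex LC-MS/MS with channel sums equalised, and reported as log2 fold change in thermal stability against DMSO controls, with values from duplicates.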

pictilisib = compound: CS(=O)(=O)N1CCN(Cc2cc3nc(-c4cccc5[nH]ncc45)nc(N4CCOCC4)c3s2)CC1 [pictilisib]
Summary of the method: as §1

crizotinib = compound: C[C@@H](Oc1cc(-c2cnn(C3CCNCC3)c2)cnc1N)c1c(Cl)ccc(F)c1Cl [crizotinib]
Summary of the method: as §1

[1] = compound: C[C@H](C1=CC=C(C=C1)C(=O)NC2=C3C=CNC3=NC=C2)N
Summary of the method: as §1

duvelisib = compound: C[C@H](Nc1ncnc2nc[nH]c12)c1cc2cccc(Cl)c2c(=O)n1-c1ccccc1 [duvelisib]
Summary of the method: as §1

gandotinib = compound: Cc1cc(Nc2cc(CN3CCOCC3)c3nc(C)c(Cc4ccc(Cl)cc4F)n3n2)n[nH]1 [gandotinib]
Summary of the method: as §1

tozasertib = compound: Cc1cc(Nc2cc(N3CCN(C)CC3)nc(Sc3ccc(NC(=O)C4CC4)cc3)n2)n[nH]1 [tozasertib]
Summary of the method: as §1

doramapimod = compound: Cc1ccc(-n2nc(C(C)(C)C)cc2NC(=O)Nc2ccc(OCCN3CCOCC3)c3ccccc23)cc1 [doramapimod]
Summary of the method: as §1

bafetinib = compound: Cc1ccc(NC(=O)c2ccc(CN3CC[C@H](N(C)C)C3)c(C(F)(F)F)c2)cc1Nc1nccc(-c2cncnc2)n1 [bafetinib]
Summary of the method: as §1

[2] = compound: Cc1cccc(CC(=O)N2CCc3c2ccc(-c2cn(C)c4ncnc(N)c24)c3F)n1
Summary of the method: as §1

Measured: log2 fold change

ZFC3H1 (UniProt O60293)
inactive: lapatinib 0.016 | pictilisib 0.077 | crizotinib -0.07 | [1] -0.099 | duvelisib -0.086 | gandotinib 0.011 | tozasertib 0.081 | doramapimod 0.08 | bafetinib 0.003 | [2] 0.019

ZBED1 (UniProt O96006)
inactive: lapatinib 0.024 | pictilisib -0.031 | crizotinib -0.005 | [1] 0.016 | duvelisib 0.065 | gandotinib -0.019 | tozasertib 0.006 | doramapimod 0.004 | bafetinib 0.068 | [2] -0.013

ZC2HC1A (UniProt Q96GY0)
inactive: lapatinib 0.004 | pictilisib 0.056 | crizotinib -0.009 | [1] -0.082 | duvelisib 0 | gandotinib 0.053 | tozasertib 0.007 | doramapimod -0.021 | bafetinib 0.052 | [2] 0.103

YY1 (UniProt P25490)
inactive: lapatinib 0.008 | pictilisib 0.078 | crizotinib 0.071 | [1] 0.11 | duvelisib 0.016 | gandotinib -0.162 | tozasertib 0.043 | doramapimod 0.019 | bafetinib -0.006 | [2] -0.09

YLPM1 (UniProt P49750)
inactive: lapatinib 0.031 | pictilisib -0.019 | crizotinib 0.064 | [1] 0.147 | duvelisib 0.009 | gandotinib -0.067 | tozasertib 0.017 | doramapimod -0.042 | bafetinib -0.09 | [2] -0.054

ZER1 (UniProt Q7Z7L7)
inactive: lapatinib 0.044 | pictilisib -0.101 | crizotinib 0.066 | [1] -0.262 | duvelisib 0.008 | gandotinib 0.07 | tozasertib -0.112 | doramapimod 0.209 | bafetinib 0.038 | [2] 0.083

YKT6 (UniProt O15498)
inactive: lapatinib -0.003 | pictilisib -0.036 | crizotinib 0.059 | [1] 0.06 | duvelisib -0.032 | gandotinib -0.087 | tozasertib -0.021 | doramapimod 0.039 | bafetinib 0.018 | [2] -0.105

XRCC5 (UniProt C9JZ81)
inactive: lapatinib -0.111

YWHAG (UniProt P61981)
inactive: lapatinib 0.014 | pictilisib 0.017 | crizotinib 0.063 | [1] -0.005 | duvelisib -0.016 | gandotinib 0.009 | tozasertib -0.028 | doramapimod -0.025 | bafetinib 0.028 | [2] 0.011

XPO5 (UniProt Q9HAV4)
inactive: lapatinib -0.042 | pictilisib 0 | crizotinib -0.085 | [1] -0.041 | duvelisib -0.017 | gandotinib -0.14 | tozasertib 0.013 | doramapimod -0.008 | bafetinib -0.006 | [2] 0.049

YEATS4 (UniProt O95619)
active: [1] 0.609
inactive: lapatinib 0.023 | pictilisib 0.026 | crizotinib 0.02 | duvelisib -0.015 | gandotinib -0.126 | tozasertib -0.006 | doramapimod 0.064 | bafetinib -0.033 | [2] -0.083

YIPF6 (UniProt Q96EC8)
inactive: lapatinib -0.004 | pictilisib -0.011 | crizotinib -0.049 | [1] -0.002 | duvelisib -0.081 | gandotinib -0.027 | tozasertib -0.016 | doramapimod 0.031 | bafetinib 0.148 | [2] -0.011

YIPF3 (UniProt Q9GZM5)
inactive: lapatinib -0.021 | pictilisib -0.016 | crizotinib 0.038 | [1] -0.09 | duvelisib 0.033 | gandotinib 0.017 | tozasertib -0.002 | doramapimod -0.011 | bafetinib -0.034 | [2] 0.092

ZFYVE19 (UniProt Q96K21)
inactive: lapatinib 0.042 | pictilisib 0.017 | crizotinib 0.007 | [1] -0.125 | duvelisib -0.005 | gandotinib 0.085 | tozasertib 0.046 | doramapimod -0.029 | bafetinib 0 | [2] 0.149

ZFYVE28 (UniProt Q9HCC9)
inactive: lapatinib -0.137 | pictilisib 0.064 | crizotinib -0.012 | [1] 0.006 | duvelisib 0.105 | gandotinib -0.024 | tozasertib 0.019 | doramapimod -0.107 | bafetinib 0.022 | [2] 0.006

Quoted from the results shown (5 entries):
YWHAG (UniProt P61981)
inactive: lapatinib 0.014 | pictilisib 0.017 | crizotinib 0.063 | [1] -0.005 | duvelisib -0.016 | gandotinib 0.009 | tozasertib -0.028 | doramapimod -0.025 | bafetinib 0.028 | [2] 0.011

XPO5 (UniProt Q9HAV4)
inactive: lapatinib -0.042 | pictilisib 0 | crizotinib -0.085 | [1] -0.041 | duvelisib -0.017 | gandotinib -0.14 | tozasertib 0.013 | doramapimod -0.008 | bafetinib -0.006 | [2] 0.049

YEATS4 (UniProt O95619)
active: [1] 0.609
inactive: lapatinib 0.023 | pictilisib 0.026 | crizotinib 0.02 | duvelisib -0.015 | gandotinib -0.126 | tozasertib -0.006 | doramapimod 0.064 | bafetinib -0.033 | [2] -0.083

YIPF6 (UniProt Q96EC8)
inactive: lapatinib -0.004 | pictilisib -0.011 | crizotinib -0.049 | [1] -0.002 | duvelisib -0.081 | gandotinib -0.027 | tozasertib -0.016 | doramapimod 0.031 | bafetinib 0.148 | [2] -0.011

YIPF3 (UniProt Q9GZM5)
inactive: lapatinib -0.021 | pictilisib -0.016 | crizotinib 0.038 | [1] -0.09 | duvelisib 0.033 | gandotinib 0.017 | tozasertib -0.002 | doramapimod -0.011 | bafetinib -0.034 | [2] 0.092

(list continues)

XRN2 (UniProt Q9H0D6)
inactive: lapatinib -0.003 | pictilisib -0.014 | crizotinib 0.03 | [1] -0.017 | duvelisib -0.043 | gandotinib 0.014 | tozasertib -0.043 | doramapimod 0.042 | bafetinib 0.007 | [2] -0.017

XYLB (UniProt O75191)
inactive: lapatinib -0.042 | pictilisib -0.001 | crizotinib -0.048 | [1] 0.035 | duvelisib 0.062 | gandotinib -0.011 | tozasertib -0.116 | doramapimod 0.045 | bafetinib -0.132 | [2] -0.06

ZFYVE21 isoform 2 (UniProt Q9BQ24)
inactive: lapatinib 0 | pictilisib -0.081 | crizotinib -0.04 | [1] -0.057 | duvelisib -0.077 | gandotinib -0.058 | tozasertib 0.11 | doramapimod -0.035 | bafetinib 0.064 | [2] 0.047

YTHDF2 (UniProt Q9Y5A9)
inactive: lapatinib -0.025 | pictilisib 0.057 | crizotinib 0.035 | [1] 0.095 | duvelisib -0.057 | gandotinib 0.017 | tozasertib 0.011 | doramapimod 0.028 | bafetinib -0.058 | [2] -0.062

ZC3H13 (UniProt Q5T200)
inactive: lapatinib -0.013 | pictilisib -0.022 | crizotinib -0.057 | [1] 0.039 | duvelisib 0.041 | gandotinib -0.063 | tozasertib 0.062 | doramapimod 0.149 | bafetinib 0.017 | [2] 0.102

ZBTB8OS (UniProt Q8IWT0)
inactive: lapatinib -0.008 | pictilisib 0.013 | crizotinib 0.066 | [1] -0.096 | duvelisib -0.065 | gandotinib 0.047 | tozasertib 0.003 | doramapimod -0.054 | bafetinib -0.06 | [2] 0.023

YWHAZ (UniProt E7ESK7)
inactive: lapatinib 0.03 | pictilisib -0.092 | crizotinib -0.167 | [1] -0.019 | duvelisib 0.067 | gandotinib 0.055 | tozasertib 0.129 | doramapimod 0.139 | bafetinib 0.169 | [2] -0.017

XPNPEP3 (UniProt Q9NQH7)
inactive: lapatinib -0.013 | pictilisib 0 | crizotinib 0 | [1] -0.026 | duvelisib -0.02 | gandotinib 0.042 | tozasertib -0.056 | doramapimod -0.071 | bafetinib -0.001 | [2] -0.049

ZC3HC1 (UniProt Q86WB0)
active: [1] 0.222
inactive: lapatinib 0.042 | pictilisib 0.001 | crizotinib 0.023 | duvelisib 0.013 | gandotinib -0.082 | tozasertib -0.036 | doramapimod 0.025 | bafetinib -0.019 | [2] -0.094

XPOT (UniProt O43592)
inactive: lapatinib -0.033 | pictilisib 0.013 | crizotinib -0.051 | [1] -0.044 | duvelisib 0.022 | gandotinib -0.086 | tozasertib -0.007 | doramapimod 0 | bafetinib -0.04 | [2] 0.057

YJU2 (UniProt Q9BW85)
inactive: lapatinib 0.029 | pictilisib 0.024 | crizotinib 0.01 | [1] 0.037 | duvelisib 0.006 | gandotinib 0.085 | tozasertib -0.007 | doramapimod -0.071 | bafetinib -0.006 | [2] 0.043

YES1 (UniProt P07947)
inactive: lapatinib 0 | pictilisib -0.063 | crizotinib -0.128 | [1] -0.101 | duvelisib -0.066 | gandotinib 0.212 | tozasertib -0.105 | doramapimod -0.005 | bafetinib 0.155 | [2] 0.092

YBX3 (UniProt P16989)
inactive: lapatinib -0.023 | pictilisib 0.061 | crizotinib -0.005 | [1] -0.026 | duvelisib 0.03 | gandotinib 0.014 | tozasertib -0.004 | doramapimod -0.007 | bafetinib 0.053 | [2] -0.045

ZBTB24 (UniProt O43167)
inactive: lapatinib -0.032 | pictilisib -0.055 | crizotinib -0.013 | [1] 0.116 | duvelisib -0.016 | gandotinib 0.135 | tozasertib 0.046 | doramapimod 0.006 | bafetinib 0.034 | [2] 0.002

XRCC4 (UniProt Q13426)
inactive: lapatinib -0.002 | pictilisib -0.014 | crizotinib 0.086 | [1] -0.084 | duvelisib 0.008 | gandotinib 0.052 | tozasertib 0.026 | doramapimod -0.089 | bafetinib -0.028 | [2] 0.038
